Reference: patent publication US20130197070
For some assays here: Results from cells or extracts need not show a direct contact. For some assays here: No signal at the amounts used counts as a negative. For some assays here: For at least one entry, the source does not settle the construct or the ends of the probe.

Chains of the proteins cited; added tags and fusions are not shown. Residues count along the entry.
UniProt P30530, 26-894: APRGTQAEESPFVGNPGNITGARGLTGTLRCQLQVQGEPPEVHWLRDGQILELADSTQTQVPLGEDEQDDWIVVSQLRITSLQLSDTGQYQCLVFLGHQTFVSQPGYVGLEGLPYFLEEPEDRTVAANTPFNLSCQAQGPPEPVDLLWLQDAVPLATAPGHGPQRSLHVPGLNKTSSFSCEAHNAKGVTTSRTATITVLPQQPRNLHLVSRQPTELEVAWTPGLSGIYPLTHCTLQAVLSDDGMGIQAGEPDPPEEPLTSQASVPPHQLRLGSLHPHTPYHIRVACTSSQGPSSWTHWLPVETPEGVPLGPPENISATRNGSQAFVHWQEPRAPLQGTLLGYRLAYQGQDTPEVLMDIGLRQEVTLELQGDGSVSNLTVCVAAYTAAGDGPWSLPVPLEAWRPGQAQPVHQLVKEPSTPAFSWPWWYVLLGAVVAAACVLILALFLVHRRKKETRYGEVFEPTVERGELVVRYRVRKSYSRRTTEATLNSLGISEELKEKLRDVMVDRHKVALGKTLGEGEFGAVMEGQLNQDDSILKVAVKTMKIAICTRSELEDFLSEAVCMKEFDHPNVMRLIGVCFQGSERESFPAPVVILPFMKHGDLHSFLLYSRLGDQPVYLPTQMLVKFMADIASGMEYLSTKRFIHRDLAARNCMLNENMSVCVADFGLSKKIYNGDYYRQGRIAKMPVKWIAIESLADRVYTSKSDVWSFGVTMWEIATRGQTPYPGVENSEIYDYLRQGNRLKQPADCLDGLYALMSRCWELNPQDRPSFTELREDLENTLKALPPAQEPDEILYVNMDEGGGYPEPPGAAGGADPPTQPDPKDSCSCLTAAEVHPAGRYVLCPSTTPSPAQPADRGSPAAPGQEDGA

Assays:
[1] = target: Axl receptor tyrosine kinase (cell surface) (Homo sapiens) (UniProt P30530); assay: activity in cells; details: 2'-F on all pyrimidines; 200 nM aptamer inhibits basal and Gas6-induced Axl and ERK phosphorylation in U87MG cells; protein on the cell surface
[2] = target: Axl receptor tyrosine kinase (cell surface) (Homo sapiens) (UniProt P30530); assay: binding assay; details: 2'-F pyrimidines; negative control, background binding to cells at 50 nM, polyinosine competitor, RT; protein on the cell surface; label: 5'-32P

AUGAUCAAUCGCCUCAAUUCGACAGGAGGCUCAC [GL21 52-85 (GL21.T)]
functional effect of the aptamer [1]: active

UUCGUACCGGGUAGGUUGGCUUGCACAUAGAACGUGUCA [unrelated aptamer]
binding result [2]: no binding
